Experimental data reported in article PMC3628100.
These are yes or no findings as the source states them, for the method shown. Binding seen in cells or lysates may run through a third protein. Some results given as binding are weak or reduced against the parent protein; the word gives no strength. Blank lines part the entries; values can stand above or below the substance they belong to.

Amino acid sequences for entries named in this document (tags omitted). Residues count along the entry.
UniProt P15943, residues 32-765: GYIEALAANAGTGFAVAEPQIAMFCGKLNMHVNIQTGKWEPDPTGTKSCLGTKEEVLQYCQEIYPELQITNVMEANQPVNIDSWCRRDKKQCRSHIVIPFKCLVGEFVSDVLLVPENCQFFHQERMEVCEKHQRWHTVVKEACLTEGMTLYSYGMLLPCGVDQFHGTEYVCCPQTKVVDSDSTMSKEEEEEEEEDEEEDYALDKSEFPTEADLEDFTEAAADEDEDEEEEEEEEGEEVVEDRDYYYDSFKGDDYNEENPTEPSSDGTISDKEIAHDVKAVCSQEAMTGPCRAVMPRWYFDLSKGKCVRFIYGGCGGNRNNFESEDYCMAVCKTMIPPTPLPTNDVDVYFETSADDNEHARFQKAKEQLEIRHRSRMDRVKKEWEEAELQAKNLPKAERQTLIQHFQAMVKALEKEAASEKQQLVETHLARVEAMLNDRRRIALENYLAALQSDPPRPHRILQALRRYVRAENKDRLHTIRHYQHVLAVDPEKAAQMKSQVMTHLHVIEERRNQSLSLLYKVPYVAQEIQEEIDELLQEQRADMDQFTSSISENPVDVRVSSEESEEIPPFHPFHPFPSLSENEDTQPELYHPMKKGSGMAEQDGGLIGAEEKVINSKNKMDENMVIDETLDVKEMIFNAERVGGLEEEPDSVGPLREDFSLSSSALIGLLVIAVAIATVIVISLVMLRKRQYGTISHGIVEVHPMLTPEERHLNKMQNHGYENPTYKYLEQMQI
UniProt P08592, residues 18-770: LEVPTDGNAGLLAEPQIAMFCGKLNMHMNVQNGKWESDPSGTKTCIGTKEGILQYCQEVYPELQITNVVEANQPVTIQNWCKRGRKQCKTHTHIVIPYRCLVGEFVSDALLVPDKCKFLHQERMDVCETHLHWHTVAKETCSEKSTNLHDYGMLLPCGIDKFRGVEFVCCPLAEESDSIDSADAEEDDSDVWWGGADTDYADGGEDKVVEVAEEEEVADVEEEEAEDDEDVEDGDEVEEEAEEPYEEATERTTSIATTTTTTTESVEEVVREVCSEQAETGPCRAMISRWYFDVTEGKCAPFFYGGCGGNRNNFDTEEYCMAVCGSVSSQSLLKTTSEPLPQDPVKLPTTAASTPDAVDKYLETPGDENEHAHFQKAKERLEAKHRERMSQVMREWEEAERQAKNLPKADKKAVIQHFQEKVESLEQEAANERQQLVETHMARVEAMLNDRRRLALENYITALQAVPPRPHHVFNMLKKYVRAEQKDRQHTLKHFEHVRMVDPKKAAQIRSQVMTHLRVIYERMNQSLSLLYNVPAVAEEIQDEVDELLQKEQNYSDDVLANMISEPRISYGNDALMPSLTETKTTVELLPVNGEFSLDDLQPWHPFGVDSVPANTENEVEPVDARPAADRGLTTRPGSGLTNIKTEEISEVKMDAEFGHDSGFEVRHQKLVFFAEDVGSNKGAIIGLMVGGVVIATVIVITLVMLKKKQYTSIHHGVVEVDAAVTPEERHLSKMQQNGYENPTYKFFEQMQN

What was measured:
[1] = biological target: T1, SREBP1 (sterol regulatory element binding protein 1), endogenous in rat cortical neurons (rat (endogenous in primary cortical neurons)) (UniProt P56720); experiment: co-IP; Supporting Information Fig 7; cells and precipitating antibody not given
T1 sequence: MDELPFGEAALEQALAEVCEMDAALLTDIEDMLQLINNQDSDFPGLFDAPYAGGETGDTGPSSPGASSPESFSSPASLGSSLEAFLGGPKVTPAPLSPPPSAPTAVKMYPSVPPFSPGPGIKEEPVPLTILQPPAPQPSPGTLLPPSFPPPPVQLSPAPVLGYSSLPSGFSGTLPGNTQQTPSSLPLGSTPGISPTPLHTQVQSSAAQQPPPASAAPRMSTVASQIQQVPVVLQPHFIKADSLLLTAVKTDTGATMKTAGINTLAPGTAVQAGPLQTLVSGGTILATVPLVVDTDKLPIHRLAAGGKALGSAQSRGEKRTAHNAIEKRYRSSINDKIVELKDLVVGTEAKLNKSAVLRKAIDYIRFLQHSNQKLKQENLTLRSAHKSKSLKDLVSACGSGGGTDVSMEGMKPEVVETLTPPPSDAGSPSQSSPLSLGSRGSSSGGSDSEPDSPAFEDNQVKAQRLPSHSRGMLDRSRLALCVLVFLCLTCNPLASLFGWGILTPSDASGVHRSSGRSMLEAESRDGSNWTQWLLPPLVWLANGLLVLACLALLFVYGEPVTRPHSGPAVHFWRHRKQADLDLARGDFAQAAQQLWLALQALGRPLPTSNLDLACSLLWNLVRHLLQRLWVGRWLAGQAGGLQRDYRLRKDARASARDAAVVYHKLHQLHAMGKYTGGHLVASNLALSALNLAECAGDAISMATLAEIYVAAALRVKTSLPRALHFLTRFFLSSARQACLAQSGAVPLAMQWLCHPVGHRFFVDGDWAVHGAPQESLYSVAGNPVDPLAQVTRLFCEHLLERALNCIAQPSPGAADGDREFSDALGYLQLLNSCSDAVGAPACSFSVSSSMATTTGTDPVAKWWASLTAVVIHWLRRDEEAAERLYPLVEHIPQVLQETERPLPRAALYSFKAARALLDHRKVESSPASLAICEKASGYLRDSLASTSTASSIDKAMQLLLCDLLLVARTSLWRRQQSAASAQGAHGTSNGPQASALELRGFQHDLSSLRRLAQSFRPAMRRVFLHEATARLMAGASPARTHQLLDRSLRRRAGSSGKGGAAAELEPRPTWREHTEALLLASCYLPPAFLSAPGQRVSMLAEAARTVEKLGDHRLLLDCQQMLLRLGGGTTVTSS

[2] = biological target: T1, SREBP1 (sterol regulatory element binding protein 1), endogenous in rat cortical neurons (rat (endogenous in primary cortical neurons)); experiment: co-IP; endogenous proteins of neurons, no APP overexpression (Supporting Information Fig 6); precipitating antibody not given
[3] = biological target: T2, SCAP (SREBP-cleavage-activating protein), endogenous in rat cortical neurons (rat (endogenous in primary cortical neurons)) (UniProt A2RRU4); experiment: co-IP; lysates of primary rat cortical neurons, precipitated with 2 µg anti-SCAP K19 antibody overnight at 4°C, protein A-sepharose; 25 mM Tris pH 6.8, 0.5% Triton X-100, 0.5% Nonidet P-40; Western blot
T2 sequence: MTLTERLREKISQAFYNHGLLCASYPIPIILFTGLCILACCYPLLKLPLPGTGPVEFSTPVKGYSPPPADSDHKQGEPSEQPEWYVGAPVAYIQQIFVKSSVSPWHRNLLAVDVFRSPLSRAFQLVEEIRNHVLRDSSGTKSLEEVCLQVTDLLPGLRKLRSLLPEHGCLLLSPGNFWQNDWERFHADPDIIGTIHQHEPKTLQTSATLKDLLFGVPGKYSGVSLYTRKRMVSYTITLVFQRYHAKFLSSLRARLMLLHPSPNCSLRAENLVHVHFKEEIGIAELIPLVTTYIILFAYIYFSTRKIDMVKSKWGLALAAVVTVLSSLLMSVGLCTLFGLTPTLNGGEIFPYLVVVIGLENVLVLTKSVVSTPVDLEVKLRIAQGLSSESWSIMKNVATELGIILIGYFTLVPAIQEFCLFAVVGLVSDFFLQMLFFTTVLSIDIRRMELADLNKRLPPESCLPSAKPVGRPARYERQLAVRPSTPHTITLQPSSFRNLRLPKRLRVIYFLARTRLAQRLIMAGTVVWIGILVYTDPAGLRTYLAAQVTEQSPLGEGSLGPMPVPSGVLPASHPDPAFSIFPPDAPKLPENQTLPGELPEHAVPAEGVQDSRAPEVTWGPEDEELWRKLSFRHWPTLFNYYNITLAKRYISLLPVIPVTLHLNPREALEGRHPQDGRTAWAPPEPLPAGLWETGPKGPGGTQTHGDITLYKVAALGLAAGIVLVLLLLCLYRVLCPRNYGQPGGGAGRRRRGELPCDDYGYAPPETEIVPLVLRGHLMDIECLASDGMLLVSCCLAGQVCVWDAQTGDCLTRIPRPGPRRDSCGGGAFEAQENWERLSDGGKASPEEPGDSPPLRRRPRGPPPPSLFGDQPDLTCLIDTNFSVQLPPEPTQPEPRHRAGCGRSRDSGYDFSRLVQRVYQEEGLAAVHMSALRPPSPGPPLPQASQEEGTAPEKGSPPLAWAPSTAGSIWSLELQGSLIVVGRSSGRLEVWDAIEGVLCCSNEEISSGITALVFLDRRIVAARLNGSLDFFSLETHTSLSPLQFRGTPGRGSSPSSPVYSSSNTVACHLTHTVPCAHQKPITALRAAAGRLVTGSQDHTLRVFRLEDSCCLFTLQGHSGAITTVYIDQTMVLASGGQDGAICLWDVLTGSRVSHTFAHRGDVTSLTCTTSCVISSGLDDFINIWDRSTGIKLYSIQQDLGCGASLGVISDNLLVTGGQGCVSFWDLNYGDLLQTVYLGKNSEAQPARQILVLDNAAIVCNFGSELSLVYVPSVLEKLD

binding [1]: binds
Substance: APLP2 (APP-like protein 2) (from UniProt P15943 32-765)

binding [2]: binds
Substance: endogenous neuronal APP (from UniProt P08592 18-770)

binding [3]: binds
Substance: wild-type human APP695 (amyloid precursor protein), expressed in rat cortical neurons (from UniProt P05067-4 18-695)
